PubChem BioAssay AID1259405 | NCATS – 2018
Shown is a random part of about 50,000 deposited reagents. About 4,000 of them (8%) were called active. 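Mouse siRNA library applied to hamster cells; one well for each siRNA.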 Unmarked entries are inactive. The numbers tell different reagents against one gene apart. Reagent sequences are not shown.

- Aim: 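Silenced genes that increase secreted GFP made by CHO cells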 (primary screen)
- Cells: Chinese hamster CHO-K1 ovary cells with stable secreted eGFP expression
- Knock-down reagent: single siRNA against mouse genes, 0.8 pmol siRNA per well (2 µl of 400 nM stock)
- Time to read-out: 3 days
- Measured: 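Percent of the per-plate non-targeting control median for intracellular GFP per well by laser scanning cytometry and for cell viability by ATP luminescence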
- Reading the numbers: GFP, % of control: higher = more GFP per well, higher productivity; viability (ATP), % of control: higher = more viable cells (more ATP)
- Rule for the call: 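a knock-down is called active if GFP reaches 120% or more of non-targeting control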

The opening 2 entries, to show the layout:
{"Gene": "Ddx24 (DEAD box helicase 24)", "reagent": 1, "GFP, % of control": 89.4, "viability (ATP), % of control": 47.4}
{"Gene": "Ddx24 (DEAD box helicase 24)", "reagent": 2, "GFP, % of control": 76.4, "viability (ATP), % of control": 59}

Main list, from the start:
{"Gene": "Ddx24 (DEAD box helicase 24)", "reagent": 1, "GFP, % of control": 89.4, "viability (ATP), % of control": 47.4}
{"Gene": "Ddx24 (DEAD box helicase 24)", "reagent": 2, "GFP, % of control": 76.4, "viability (ATP), % of control": 59}
{"Gene": "Ddx24 (DEAD box helicase 24)", "reagent": 3, "GFP, % of control": 82.7, "viability (ATP), % of control": 55.6}
{"Gene": "Dhx57 (DExH-box helicase 57)", "reagent": 1, "GFP, % of control": 114, "viability (ATP), % of control": 122}
{"Gene": "Dhx57 (DExH-box helicase 57)", "reagent": 2, "GFP, % of control": 72.9, "viability (ATP), % of control": 80.8}
{"Gene": "Dhx57 (DExH-box helicase 57)", "reagent": 3, "GFP, % of control": 68, "viability (ATP), % of control": 73.4}
{"Gene": "Or5al7 (olfactory receptor family 5 subfamily AL member 7)", "reagent": 1, "GFP, % of control": 72.2, "viability (ATP), % of control": 81.5}
{"Gene": "Or5al7 (olfactory receptor family 5 subfamily AL member 7)", "reagent": 2, "GFP, % of control": 109, "viability (ATP), % of control": 59.5}
{"Gene": "Or5al7 (olfactory receptor family 5 subfamily AL member 7)", "reagent": 3, "GFP, % of control": 87.8, "viability (ATP), % of control": 66.2}
{"Gene": "Parp2 (poly (ADP-ribose) polymerase family, member 2)", "reagent": 1, "GFP, % of control": 78, "viability (ATP), % of control": 59.4}
{"Gene": "Parp2 (poly (ADP-ribose) polymerase family, member 2)", "reagent": 2, "GFP, % of control": 89.5, "viability (ATP), % of control": 62.8}
{"Gene": "Parp2 (poly (ADP-ribose) polymerase family, member 2)", "reagent": 3, "GFP, % of control": 82.9, "viability (ATP), % of control": 85.2}
{"Gene": "Mrm3 (mitochondrial rRNA methyltransferase 3)", "reagent": 1, "GFP, % of control": 81.7, "viability (ATP), % of control": 101}
{"Gene": "Mrm3 (mitochondrial rRNA methyltransferase 3)", "reagent": 2, "GFP, % of control": 74.9, "viability (ATP), % of control": 87.4}
{"Gene": "Mrm3 (mitochondrial rRNA methyltransferase 3)", "reagent": 3, "GFP, % of control": 83, "viability (ATP), % of control": 81.3}
{"Gene": "Cmbl (carboxymethylenebutenolidase homolog)", "reagent": 1, "GFP, % of control": 66.9, "viability (ATP), % of control": 81.8}
{"Gene": "Cmbl (carboxymethylenebutenolidase homolog)", "reagent": 2, "GFP, % of control": 53.4, "viability (ATP), % of control": 37.8}
{"Gene": "Cmbl (carboxymethylenebutenolidase homolog)", "reagent": 3, "GFP, % of control": 79.2, "viability (ATP), % of control": 95.6}
{"Gene": "Tex48 (testis expressed 48)", "reagent": 1, "GFP, % of control": 105, "viability (ATP), % of control": 85.7}
{"Gene": "Tex48 (testis expressed 48)", "reagent": 2, "GFP, % of control": 86.4, "viability (ATP), % of control": 105}
{"Gene": "Tex48 (testis expressed 48)", "reagent": 3, "GFP, % of control": 112, "viability (ATP), % of control": 77.5}
{"Gene": "Cdca8 (cell division cycle associated 8)", "reagent": 1, "GFP, % of control": 65.1, "viability (ATP), % of control": 87.4}
{"Gene": "Cdca8 (cell division cycle associated 8)", "reagent": 2, "GFP, % of control": 45.3, "viability (ATP), % of control": 72.6}
{"Gene": "Cdca8 (cell division cycle associated 8)", "reagent": 3, "GFP, % of control": 63.9, "viability (ATP), % of control": 70.8}
{"Gene": "Zfp661 (zinc finger protein 661)", "reagent": 1, "GFP, % of control": 58.4, "viability (ATP), % of control": 33.8}
{"Gene": "Zfp661 (zinc finger protein 661)", "reagent": 2, "GFP, % of control": 105, "viability (ATP), % of control": 64.3}
{"Gene": "Zfp661 (zinc finger protein 661)", "reagent": 3, "GFP, % of control": 65.1, "viability (ATP), % of control": 67.2}
{"Gene": "Kdelr2", "reagent": 1, "GFP, % of control": 64, "viability (ATP), % of control": 87.8}
{"Gene": "Kdelr2", "reagent": 2, "GFP, % of control": 78.8, "viability (ATP), % of control": 66.3}
{"Gene": "Ate1 (arginyltransferase 1)", "reagent": 1, "GFP, % of control": 52.2, "viability (ATP), % of control": 61}
{"Gene": "Ate1 (arginyltransferase 1)", "reagent": 2, "GFP, % of control": 89.4, "viability (ATP), % of control": 77.7}
{"Gene": "Ate1 (arginyltransferase 1)", "reagent": 3, "GFP, % of control": 74.5, "viability (ATP), % of control": 93.8}
{"Gene": "Rps6kc1 (ribosomal protein S6 kinase C1)", "reagent": 1, "GFP, % of control": 89.2, "viability (ATP), % of control": 76.3}
{"Gene": "Rps6kc1 (ribosomal protein S6 kinase C1)", "reagent": 2, "GFP, % of control": 85, "viability (ATP), % of control": 58.1}
{"Gene": "Rps6kc1 (ribosomal protein S6 kinase C1)", "reagent": 3, "GFP, % of control": 80, "viability (ATP), % of control": 63.6}
{"Gene": "Ovol1 (ovo like zinc finger 1)", "reagent": 1, "GFP, % of control": 86.6, "viability (ATP), % of control": 105}
{"Gene": "Ovol1 (ovo like zinc finger 1)", "reagent": 2, "GFP, % of control": 63.4, "viability (ATP), % of control": 78.8}
{"Gene": "Ovol1 (ovo like zinc finger 1)", "reagent": 3, "GFP, % of control": 39, "viability (ATP), % of control": 46.3}
{"Gene": "Hsd17b1 (hydroxysteroid (17-beta) dehydrogenase 1)", "reagent": 1, "GFP, % of control": 83.3, "viability (ATP), % of control": 67.4}
{"Gene": "Hsd17b1 (hydroxysteroid (17-beta) dehydrogenase 1)", "reagent": 2, "GFP, % of control": "157 (active)", "viability (ATP), % of control": 67.2}
{"Gene": "Hsd17b1 (hydroxysteroid (17-beta) dehydrogenase 1)", "reagent": 3, "GFP, % of control": 112, "viability (ATP), % of control": 81.8}
